The values below come from paper PMC7862700.

Some of the results follow. The source does not settle which construct or isoform was used.

The test deals with T1, ETS1 (UniProt P14921).
T1 sequence: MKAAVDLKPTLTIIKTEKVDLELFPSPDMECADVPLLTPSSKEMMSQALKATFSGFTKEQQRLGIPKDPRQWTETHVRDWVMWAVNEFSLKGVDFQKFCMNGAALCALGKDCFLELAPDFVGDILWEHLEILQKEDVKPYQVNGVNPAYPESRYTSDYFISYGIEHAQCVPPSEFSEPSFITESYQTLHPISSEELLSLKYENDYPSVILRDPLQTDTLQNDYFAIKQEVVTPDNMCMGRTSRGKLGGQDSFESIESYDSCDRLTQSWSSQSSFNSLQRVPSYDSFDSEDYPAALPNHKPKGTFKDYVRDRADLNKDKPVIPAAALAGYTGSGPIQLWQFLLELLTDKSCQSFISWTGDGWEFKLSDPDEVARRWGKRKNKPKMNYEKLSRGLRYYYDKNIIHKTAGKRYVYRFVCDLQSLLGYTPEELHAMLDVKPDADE
Kind of test: DAPPL (digital affinity profiling via proximity ligation, sequencing). The following applies: 10 mM Tris-HCl pH 7.5, 50 mM NaCl, 1 mM DTT, 4% glycerol, room temperature, 30 min; GST-TFs on glutathione beads, 16-mer random dsDNA library, 0.1% …; high values mean tight binding; double strand, one strand shown; scale: fold enrichment (6-mer frequency, TF over GST control).
The sequence TTTTGT showed a binding signal of 1.35. The figure for ACTTTA is 1.19; for CGATTA it is 1.16.

In turn, CGACCG showed a binding signal of 1.2. Take TCATTC: the binding signal came to 1.27. Turning to ATCCGC, the binding signal was 1.83.

In the case of ACTAGC, the binding signal was found to be 1.1.

CTTCGC gave a binding signal of 1.48. For TTCACT, the binding signal turned out to be 1.37.

For TTCTCC, the binding signal worked out at 1.64. Sequence GGGCCT came in with a binding signal of 1.32. The figure for AAGTAC is 1.37. Turning to CTCTGC, the binding signal worked out at 1.56.

TATGTA had a binding signal of 1.42. Regarding CTCAAT, the binding signal was determined as 1.24.

Consider ATCCCT, for which the binding signal came to 1.25. Sequence ACAATA returned a binding signal of 1.19. TGCCCG gave a binding signal of 1.05. To GTTCCA belongs 1.1; to TGCGCT, 1.22. To TATAAC belongs 1.17; to ATGCGG, 1.04; to TCTGCA, 1.22.

TGGTAC gave a binding signal of 1.18. The figure for TTGCGT is 1.12. For CTCCGC, the binding signal came out at 1.39. To CTCCGG belongs 1.54; to GACCTA, 1.18. Turning to TGTTTG, the binding signal is 1.19.

Turning to ACATTG, the binding signal was 1.11. To CCCATG belongs 0.988; to TTAAAG, 1.18. To TATCGT belongs 1.15; to CCTTGG, 1.28.

CCGATT registered a binding signal of 1.33. CCCTAC had a binding signal of 1.47. In the case of CGCCCT, the binding signal was 1.33. Sequence TGGCTA registered a binding signal of 1.21. On to CACTGG, for which the binding signal was 1.16.
